{"source": "patent US20040053206A1", "about": "(DYAX, published 2004)", "binders": {"B1": {"name": "PEP-1 KI polypeptide (designed binder)", "chain": "EAMHSFCAFKADDGPCRAAHPRWFFNIFTRQCEEFIYGGCEGNQNRFESLEECKKMCTRD", "notes": "also called DX88"}}, "molecular_target": "kallikrein (Homo sapiens (Human))", "assay": "phage display selection", "note": "Results are given in words; binding and its absence hold for the method and conditions named. Binding can be weak; no strength is given.", "data": [{"binder": "B1", "values": [{"measurement": "binding", "result": "binds"}]}]}
